Values from PubChem BioAssay AID602196 (INSERM, 2012).
The whole screen tested about 23,000 reagents; this is a random part of them. Over the whole deposit, 455 (2%) are marked active. 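Active includes both protection and sensitisation; some change values fall well beyond the stated -50 to +50 range.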 Entries without a mark were called inactive. Not all columns of the deposit are shown. Reagent sequences are not shown. Not given: the amount of reagent.

Purpose: 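Modifiers of cisplatin sensitivity in A549 cells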
Cell system: human A549 lung cancer cells
Reagents: siRNA pair against human genes
Time to read-out: 48 h transfection before cisplatin; time from cisplatin to read-out not stated
Treatment: cisplatin at a dose killing half of control-siRNA cells; exact dose and duration not given
Detection: 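Shift in cisplatin death relative to control siRNA, from -50 (all cells die) to +50 (no cells die); siRNAs harmful on their own scored 0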
Scale: two-siRNA summed score (-2 to +2): higher = both siRNAs protect from cisplatin killing; -2 means both sensitise; mean protection from cisplatin (shift in death): higher = protection from cisplatin killing
Call rule: 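siRNAs harmful alone (LDH or WST-1) get 0; others get +1 for less and -1 for more cisplatin killing; genes are active when the two siRNAs give the same sign, summing to ±2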
Meaning of the calls: active = both siRNAs shift cisplatin killing the same way; inactive = no consistent shift, or siRNA harmful alone

MFF (GeneID 56947) | two-siRNA summed score (-2 to +2): 0; mean protection from cisplatin (shift in death) (%): 11.1
NANOS1 (GeneID 340719) | two-siRNA summed score (-2 to +2): -2 (active); mean protection from cisplatin (shift in death) (%): -11.4
GOLM1 (GeneID 51280) | two-siRNA summed score (-2 to +2): 0; mean protection from cisplatin (shift in death) (%): 2.2
HSPD1 (GeneID 3329) | two-siRNA summed score (-2 to +2): 0; mean protection from cisplatin (shift in death) (%): 4
MARVELD1 (GeneID 83742) | two-siRNA summed score (-2 to +2): 0; mean protection from cisplatin (shift in death) (%): 12.1
TM2D1 (GeneID 83941) | two-siRNA summed score (-2 to +2): 0; mean protection from cisplatin (shift in death) (%): 10.8
CMTM1 (GeneID 113540) | two-siRNA summed score (-2 to +2): 0; mean protection from cisplatin (shift in death) (%): 2.7
SCAMP2 (GeneID 10066) | two-siRNA summed score (-2 to +2): 0; mean protection from cisplatin (shift in death) (%): -2.1
ATP8B1 (GeneID 5205) | two-siRNA summed score (-2 to +2): 0; mean protection from cisplatin (shift in death) (%): 14
CLIC4P3 (GeneID 442447) | two-siRNA summed score (-2 to +2): 0; mean protection from cisplatin (shift in death) (%): 7.8
LOC401250 | two-siRNA summed score (-2 to +2): 0; mean protection from cisplatin (shift in death) (%): 12.9
GPR20 (GeneID 2843) | two-siRNA summed score (-2 to +2): 0; mean protection from cisplatin (shift in death) (%): 7.4
LOC440719 | two-siRNA summed score (-2 to +2): 0; mean protection from cisplatin (shift in death) (%): -7.1
RNF182 (GeneID 221687) | two-siRNA summed score (-2 to +2): 0; mean protection from cisplatin (shift in death) (%): -1.1
HMHB1 (GeneID 57824) | two-siRNA summed score (-2 to +2): 0; mean protection from cisplatin (shift in death) (%): -1
L3MBTL1 (GeneID 26013) | two-siRNA summed score (-2 to +2): 0; mean protection from cisplatin (shift in death) (%): 2.4
CFP (GeneID 5199) | two-siRNA summed score (-2 to +2): 0; mean protection from cisplatin (shift in death) (%): 10.5
TMEM243 (GeneID 79161) | two-siRNA summed score (-2 to +2): 0; mean protection from cisplatin (shift in death) (%): 4.1
SAMD9 (GeneID 54809) | two-siRNA summed score (-2 to +2): 0; mean protection from cisplatin (shift in death) (%): 7
LOC390811 | two-siRNA summed score (-2 to +2): 1; mean protection from cisplatin (shift in death) (%): 4.8
ISG20L2 (GeneID 81875) | two-siRNA summed score (-2 to +2): 0; mean protection from cisplatin (shift in death) (%): -0.9
PRKACA (GeneID 5566) | two-siRNA summed score (-2 to +2): -1; mean protection from cisplatin (shift in death) (%): -12.5
NLE1 (GeneID 54475) | two-siRNA summed score (-2 to +2): 1; mean protection from cisplatin (shift in death) (%): 10.7
MX2 (GeneID 4600) | two-siRNA summed score (-2 to +2): 0; mean protection from cisplatin (shift in death) (%): -4.5
C2orf69 (GeneID 205327) | two-siRNA summed score (-2 to +2): 0; mean protection from cisplatin (shift in death) (%): 2.6
PPIB (GeneID 5479) | two-siRNA summed score (-2 to +2): 0; mean protection from cisplatin (shift in death) (%): -2.2

The list goes on, starting with the last 3 of the part before.
MX2 (GeneID 4600) | two-siRNA summed score (-2 to +2): 0; mean protection from cisplatin (shift in death) (%): -4.5
C2orf69 (GeneID 205327) | two-siRNA summed score (-2 to +2): 0; mean protection from cisplatin (shift in death) (%): 2.6
PPIB (GeneID 5479) | two-siRNA summed score (-2 to +2): 0; mean protection from cisplatin (shift in death) (%): -2.2
SMC1B (GeneID 27127) | two-siRNA summed score (-2 to +2): -1; mean protection from cisplatin (shift in death) (%): -9.9
PIAS2 (GeneID 9063) | two-siRNA summed score (-2 to +2): 0; mean protection from cisplatin (shift in death) (%): 4.3
ALG3 (GeneID 10195) | two-siRNA summed score (-2 to +2): 0; mean protection from cisplatin (shift in death) (%): 5
IL10RA (GeneID 3587) | two-siRNA summed score (-2 to +2): 1; mean protection from cisplatin (shift in death) (%): -7.1
SLC19A1 (GeneID 6573) | two-siRNA summed score (-2 to +2): 0; mean protection from cisplatin (shift in death) (%): 3
HIPK3 (GeneID 10114) | two-siRNA summed score (-2 to +2): -1; mean protection from cisplatin (shift in death) (%): -2.6
CDONP2 (GeneID 440059) | two-siRNA summed score (-2 to +2): 1; mean protection from cisplatin (shift in death) (%): 11.2
SLC6A17 (GeneID 388662) | two-siRNA summed score (-2 to +2): 0; mean protection from cisplatin (shift in death) (%): 5.4
HMOX1 (GeneID 3162) | two-siRNA summed score (-2 to +2): 0; mean protection from cisplatin (shift in death) (%): 15.6
WFDC3 (GeneID 140686) | two-siRNA summed score (-2 to +2): 0; mean protection from cisplatin (shift in death) (%): 3.1
OR1D5 (GeneID 8386) | two-siRNA summed score (-2 to +2): 0; mean protection from cisplatin (shift in death) (%): 17.9
LOC399951 | two-siRNA summed score (-2 to +2): 0; mean protection from cisplatin (shift in death) (%): -2.2
RXFP3 (GeneID 51289) | two-siRNA summed score (-2 to +2): -1; mean protection from cisplatin (shift in death) (%): -16.6
PNMA8A (GeneID 55228) | two-siRNA summed score (-2 to +2): 0; mean protection from cisplatin (shift in death) (%): 5
